The list is a part of this screen's results and no random one: it gathers tests that were run many times, whatever their T/C, doses with no T/C, and many T/C values between a quarter and a half above the control. Further doses and runs are listed elsewhere. T/C: endpoint of the treated group in % of that of the vehicle group. Some doses have a count of surviving animals in place of a T/C: the source holds a T/C of zero for them, seemingly a mark for toxic or unscored doses. Some survivor counts are full or nearly so, which does not show that the dose was tolerated: survival well below the control is almost never listed, so the zero probably covers shortened survival too. Counts of survivors are from the toxicity check (mostly the fifth day) where no day follows; animals may have died later. Schedule codes are those of the source, taken here to give the interval after Q, in days (D) or hours (H), and the number of doses after X. Some entries were tested several times; their values stand side by side, smallest first. For survival time, the PubChem record calls one and a half times the control and up active, and a quarter to a half above the control has no call in these data; cut-offs in other NCI protocols can differ. Some T/C values are followed by the survivors on the day toxicity was checked, most often the fifth; without a count, all were alive then.
System: B6C3F1 mice, B16 melanoma ip, median survival T/C
Test: NCI In Vivo Anticancer Drug Screen. Data for tumor model B16 Melanoma (intraperitoneal) in B6C3F1 mice
Details: T/C endpoint: median survival time, higher T/C = longer survival
Summary of the method: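 Mice bearing transplanted tumor were dosed with compound or vehicle, and survival was recorded. Activity is expressed as the treated-group measurement (T) divided by the vehicle control measurement (C).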

[1] = dose: 400.0 mg/kg/injection, schedule: Q01DX009 (ip), vehicle: saline with Tween-80
[2] = dose: 24.0 mg/kg/injection, schedule: Q01DX009 (ip), vehicle: water
[3] = dose: 30.0 mg/kg/injection, schedule: Q01DX009 (ip), vehicle: Klucel (hydroxypropylcellulose) (HPC)
[4] = dose: 100.0 mg/kg/injection, schedule: Q01DX009 (ip), vehicle: saline with Tween-80
[5] = dose: 200.0 mg/kg/injection, schedule: Q01DX009 (ip), vehicle: saline with Tween-80

CC1OC2CC(=O)OC2C2=C1C(=O)c1cc(-c3cc(O)c4c(c3)C(=O)C3=C(C4=O)C4OC(=O)CC4OC3C)cc(O)c1C2=O (stereo unspecified)
survivor count (dose: 1.0 mg/kg/injection, schedule: Q01DX009 (ip), vehicle: other): 10 of 10
survivor count (dose: 2.0 mg/kg/injection, schedule: Q01DX009 (ip), vehicle: other): 10 of 10
survivor count (dose: 4.0 mg/kg/injection, schedule: Q01DX009 (ip), vehicle: other): 10 of 10

COc1cccc(Sc2ccc([N+](=O)[O-])c3no[n+]([O-])c23)c1
survivor count (dose: 120.0 mg/kg/injection, schedule: Q01DX009 (ip), vehicle: saline with Tween-80): 8 of 10
survivor count (dose: 240.0 mg/kg/injection, schedule: Q01DX009 (ip), vehicle: saline with Tween-80): 0 of 10
survivor count (dose: 480.0 mg/kg/injection, schedule: Q01DX009 (ip), vehicle: saline with Tween-80): 0 of 10

NC(=S)N/N=C\c1ncccc1OCc1cccc(N)c1
T/C (dose: 100.0 mg/kg/injection, schedule: Q01DX009 (ip), vehicle: saline with Tween-80, evaluated on day 55): 125 % of control
T/C (dose: 100.0 mg/kg/injection, schedule: Q01DX009 (ip), vehicle: saline with Tween-80, evaluated on day 60): 131 and 134 % of control
T/C (dose: 200.0 mg/kg/injection, schedule: Q01DX009 (ip), vehicle: saline with Tween-80, evaluated on day 55): 132 % of control
T/C (dose: 200.0 mg/kg/injection, schedule: Q01DX009 (ip), vehicle: saline with Tween-80, evaluated on day 60): 127 and 139 % of control [9 of 10 alive]
T/C [1]: 132 % of control

COc1cccc2c1C(=O)c1c(O)c3c(c(O)c1C2=O)CC(O)(/C(C)=N/NC(=O)CCC(=O)N/N=C(\C)C1(O)Cc2c(O)c4c(c(O)c2C(OC2CC(N)C(O)C(C)O2)C1)C(=O)c1c(OC)cccc1C4=O)CC3OC1CC(N)C(O)C(C)O1 (stereo unspecified)
T/C (dose: 0.75 mg/kg/injection, schedule: Q01DX009 (ip), vehicle: water): 147 % of control
T/C (dose: 12.0 mg/kg/injection, schedule: Q01DX009 (ip), vehicle: water): 130 % of control
T/C [2]: 133 % of control
survivor count [2]: 10 of 10

COc1cc2c(c(OC)c1OC)-c1cccc(=O)cc1C(NC(C)=O)CC2 (stereo unspecified)
T/C (dose: 5.0 mg/kg/injection, schedule: Q01DX009 (ip), vehicle: Klucel (hydroxypropylcellulose) (HPC)): 144 % of control
T/C (dose: 10.0 mg/kg/injection, schedule: Q01DX009 (ip), vehicle: Klucel (hydroxypropylcellulose) (HPC)): 148 % of control
survivor count (dose: 20.0 mg/kg/injection, schedule: Q01DX009 (ip), vehicle: Klucel (hydroxypropylcellulose) (HPC)): 2 of 10
survivor count [3]: 0 of 10

C/C(=N\NC(N)=O)c1cccc(/C(C)=N/NC(N)=O)n1
survivor count [4]: 10 of 10
survivor count [5]: 10 of 10

CSCCC(NC(=O)c1ccccc1)C(=O)O (stereo unspecified)
survivor count [4]: 10 of 10
survivor count [5]: 9 of 10
survivor count (dose: 200.0 mg/kg/injection, schedule: Q01DX009 (ip), vehicle: saline): 10 of 10
survivor count [1]: 9 of 10
survivor count (dose: 400.0 mg/kg/injection, schedule: Q01DX009 (ip), vehicle: saline): 10 of 10

C=C1C(=O)OC2/C=C(\C)CC/C=C(/C)CC(OC(=O)/C(=C/CO)CO)C12 (stereo unspecified)
survivor count (dose: 80.0 mg/kg/injection, schedule: Q01DX009 (ip), vehicle: Klucel (hydroxypropylcellulose) (HPC)): 0 of 7

N=C(N)CCCCCCCCC(=N)N
T/C (dose: 0.78 mg/kg/injection, schedule: Q01DX009 (ip), vehicle: saline): 126 % of control
T/C (dose: 1.56 mg/kg/injection, schedule: Q01DX009 (ip), vehicle: saline): 129 % of control
T/C (dose: 3.12 mg/kg/injection, schedule: Q01DX009 (ip), vehicle: saline): 132 % of control
survivor count (dose: 6.25 mg/kg/injection, schedule: Q01DX009 (ip), vehicle: saline): 10 of 10
survivor count (dose: 12.5 mg/kg/injection, schedule: Q01DX009 (ip), vehicle: saline): 9 of 10 and 10 of 10
survivor count (dose: 25.0 mg/kg/injection, schedule: Q01DX009 (ip), vehicle: saline): 4 of 10, 6 of 10, 9 of 10

NC(=O)C1=CC2C3C=CC2(O)C(=O)OC3O1 (stereo unspecified)
survivor count [3]: 10 of 10
survivor count (dose: 60.0 mg/kg/injection, schedule: Q01DX009 (ip), vehicle: Klucel (hydroxypropylcellulose) (HPC)): 0 of 10

COc1cccc2c1C(=O)c1c(O)c3c(c(O)c1C2=O)C[C@@](O)(C(C)O)C[C@@H]3OC1CC(N2CCOCC2)C(O)C(C)O1 (stereo partly specified)
T/C (dose: 0.25 mg/kg/injection, schedule: Q01DX001 (ip), vehicle: water): 131 % of control
survivor count (dose: 0.5 mg/kg/injection, schedule: Q01DX001 (ip), vehicle: water): 8 of 10
survivor count (dose: 1.0 mg/kg/injection, schedule: Q01DX001 (ip), vehicle: water): 6 of 10
survivor count (dose: 2.0 mg/kg/injection, schedule: Q01DX001 (ip), vehicle: water): 1 of 10
survivor count (dose: 500.0 micrograms/kg/injection, schedule: Q01DX001 (ip), vehicle: water): 6 of 10

C=CC(C)(C)n1cc(C2=C(O)C(=O)C(c3cn(C(C)(C)C=C)c4ccccc34)=C(O)C2=O)c2ccccc21
survivor count (dose: 0.01 mg/kg/injection, schedule: Q01DX009 (ip), vehicle: DMSO): 5 of 10
survivor count (dose: 0.02 mg/kg/injection, schedule: Q01DX009 (ip), vehicle: DMSO): 4 of 10
survivor count (dose: 0.04 mg/kg/injection, schedule: Q01DX009 (ip), vehicle: DMSO): 3 of 10
survivor count (dose: 0.08 mg/kg/injection, schedule: Q01DX009 (ip), vehicle: DMSO): 3 of 10 and 10 of 10
survivor count (dose: 0.16 mg/kg/injection, schedule: Q01DX009 (ip), vehicle: DMSO): 9 of 10
survivor count (dose: 0.31 mg/kg/injection, schedule: Q01DX009 (ip), vehicle: DMSO): 10 of 10
survivor count (dose: 0.62 mg/kg/injection, schedule: Q01DX009 (ip), vehicle: DMSO): 10 of 10
survivor count (dose: 1.25 mg/kg/injection, schedule: Q01DX009 (ip), vehicle: DMSO): 6 of 10 and 9 of 10
survivor count (dose: 2.5 mg/kg/injection, schedule: Q01DX009 (ip), vehicle: DMSO): 8 of 10
survivor count (dose: 5.0 mg/kg/injection, schedule: Q01DX009 (ip), vehicle: DMSO): 5 of 10
survivor count (dose: 10.0 mg/kg/injection, schedule: Q01DX009 (ip), vehicle: DMSO): 5 of 10 and 9 of 10
survivor count (dose: 20.0 mg/kg/injection, schedule: Q01DX009 (ip), vehicle: DMSO): 10 of 10
survivor count (dose: 40.0 mg/kg/injection, schedule: Q01DX009 (ip), vehicle: DMSO): 1 of 10
survivor count (dose: 80.0 mg/kg/injection, schedule: Q01DX009 (ip), vehicle: DMSO): 0 of 10

COC(=O)[C@@]12OC[C@]34[C@H]([C@@H](O)[C@@H]1O)[C@@]1(C)CC(=O)C(O)=C(C)[C@@H]1C[C@H]3OC(=O)[C@H](OC(=O)/C=C(\C)C(C)CO)[C@@H]24 (stereo partly specified)
T/C (dose: 1.0 mg/kg/injection, schedule: Q01DX009 (ip), vehicle: saline + alcohol): 109, 115, 125, 168 % of control
T/C (dose: 2.0 mg/kg/injection, schedule: Q01DX009 (ip), vehicle: saline + alcohol): 121, 141, 157, 200 % of control
T/C (dose: 4.0 mg/kg/injection, schedule: Q01DX009 (ip), vehicle: saline + alcohol): 142, 162, 184 [9 of 10 alive], 185 % of control

CCC1=C2C(=O)c3ccccc3C2=C(C)S(=O)(=O)O1
survivor count (dose: 12.5 mg/kg/injection, schedule: Q01DX009 (ip), vehicle: saline with Tween-80): 10 of 10
survivor count (dose: 25.0 mg/kg/injection, schedule: Q01DX009 (ip), vehicle: saline with Tween-80): 7 of 10
survivor count (dose: 50.0 mg/kg/injection, schedule: Q01DX009 (ip), vehicle: saline with Tween-80): 0 of 10
survivor count [4]: 0 of 10

Source: PubChem BioAssay AID200 (DTP/NCI, 2004)
